{
  "source": "patent US20050106745A1",
  "about": "“Combination of solubility and membrane permeability measurement methods for profiling of chemical compounds” (AGY Therapeutics, Inc., priority 2003, published 2005)",
  "origin": "cited, not measured here",
  "conditions": "comparative CNS activity from the literature; cited from earlier work",
  "note": "At least one compound was matched to its structure with a doubt left.",
  "data": [
    {"smiles": "Cl.NC1CCN(c2cccc(Cl)n2)CC1", "note": "[SR-57227A]", "values": [
      {"measurement": "In Vivo CNS +/−", "result": "+"}
    ]}
  ]
}
